Reference: PubChem BioAssay AID652259 (Drosophila RNAi Screening Center, 2013)
In all, the deposit lists about 22,000 reagents; this is an unselected part of those that have a named target and a result. Over the whole deposit, 233 (1.1%) are marked active. 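Light values are raw, unnormalised plate reads; the ratio scores behind the reporter calls were not deposited.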 A plus sign joins genes that one reagent is predicted to hit. Not given: the amount of reagent, the time to read-out, the dose of the treatment.

Screen: 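Genome-wide hunt for genes that control Wingless pathway activity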 (primary screen)
Cell system: Drosophila clone 8 imaginal disc epithelial cells
Reagent: long dsRNA against Drosophila genes
Conditions: pathway stimulated by co-transfected Wingless expression plasmid
Read-out: 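Firefly luciferase from a tcf-site Wingless reporter, measured alongside co-transfected Renilla luciferase that tracks transfection; pathway stimulated by a Wingless plasmid; the firefly-to-Renilla ratio is not deposited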
Scale: firefly reporter light: higher = more Wg reporter light, before normalisation; Renilla control light: higher = more transfected or surviving cells
Rule for the call: 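a knock-down is a candidate when at least two out of four statistical tests show it departing from its plate mean; one test alone signals a weak candidate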
Calls: active = candidate regulator (raises or lowers reporter); inactive = not a candidate

Depletion of drongo [SID104180606] came out at: reporter change call, replicate 1 = Wg reporter activity raised; firefly reporter light, replicate 1 = 18306; Renilla control light, replicate 1 = 2404; active.
eEF1alpha2 [SID104193871] scored firefly reporter light, replicate 1 = 3177; Renilla control light, replicate 1 = 1537; inactive.
Against eEF1alpha2 [SID104196450], the values are firefly reporter light, replicate 1 = 13520; Renilla control light, replicate 1 = 10592; inactive.
With knock-down of PH4alphaNE1 [SID104196338], the screen gave firefly reporter light, replicate 1 = 1956; firefly reporter light, replicate 2 = 3587; Renilla control light, replicate 1 = 856; Renilla control light, replicate 2 = 889; inactive.
CG15343 [SID104197820] showed firefly reporter light, replicate 1 = 22211; Renilla control light, replicate 1 = 12592; inactive.
Depletion of BEAF-32 + CG42254 (retired record) [SID104185295] came out at: firefly reporter light, replicate 1 = 21905; Renilla control light, replicate 1 = 17910; inactive.
ptc [SID104184909] gave firefly reporter light, replicate 1 = 20919; Renilla control light, replicate 1 = 11045; inactive.
Against ptc [SID104187461] the deposit lists firefly reporter light, replicate 1 = 5152; firefly reporter light, replicate 2 = 8931; Renilla control light, replicate 1 = 1537; Renilla control light, replicate 2 = 3802; inactive.
For CG14797 + CG32809 [SID104198354], the values are firefly reporter light, replicate 1 = 17836; Renilla control light, replicate 1 = 12404; inactive.
For ric8a [SID104197885] the deposit lists firefly reporter light, replicate 1 = 2393; firefly reporter light, replicate 2 = 4304; Renilla control light, replicate 1 = 661; Renilla control light, replicate 2 = 1371; inactive.
After knock-down of CG42304 + Snup [SID104188068], the record shows firefly reporter light, replicate 1 = 20858; Renilla control light, replicate 1 = 8912; inactive.
Against CG42304 + Snup [SID104188069], the entry reads firefly reporter light, replicate 1 = 4627; Renilla control light, replicate 1 = 1158; inactive.
CG42304 + Snup [SID104202141] showed firefly reporter light, replicate 1 = 7.30e5; firefly reporter light, replicate 2 = 6.51e5; Renilla control light, replicate 1 = 1.73e5; Renilla control light, replicate 2 = 296; inactive.

Targets above whose gene name starts with E or e:
eEF1alpha2 [SID104193871]: firefly reporter light, replicate 1 = 3177; Renilla control light, replicate 1 = 1537; Call = inactive
eEF1alpha2 [SID104196450]: firefly reporter light, replicate 1 = 13520; Renilla control light, replicate 1 = 10592; Call = inactive
